Where a sequence shows no end group, the ends are not given.
Assay: general procedure: Fmoc solid-phase peptide synthesis; HBTU/DIPEA
Details: whole synthesis, HCl (TFA removed by lyophilisation from 10 mM hydrochloric acid); for final HPLC purity: analytical HPLC at 214 nm (Dionex Ultimate 3000, Zorbax Eclipse XDB-C8)

Sequence	isolated yield [%]	final HPLC purity [%]	final HPLC purity (run 1) [%]	final HPLC purity (run 2) [%]
KGTCAGWMA	24.0	> 95		
YGRKKKRRQQRRRDTGGTCY	14.0	> 95		
YGRKKKRRQQRRRGTCY	16.2		> 95	>95
YGRKKRRQQRRRKGTCAGWMA	18.3		> 95	>95

Reference: patent US20200223894A1 (AUCKLAND UNISERVICES LIMITED, priority 2017, published 2020)
